# According to the supplement of paper PMC9135407:
# Values joined by “and” are separate entries in the source; they are usually repeats but may differ in a detail not shown here. Equal entries are not always repeated. Structures can show the parent of a compound that is named as a salt. ± gives the standard deviation of the averaged measurements. This is one part of the list. Baselines shift from plate to plate; read single values as rough.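 Culture-activated primary human stellate myofibroblasts, where regained lipid droplets signal inactivation. Value: share of Hoechst-counted cells above a per-plate Bodipy cutoff, in duplicate wells, with DMSO negative and nortriptyline positive controls on each plate. Hits: a control-normalized score above the plate's top-tenth-percentile nortriptyline wells, or one of a plate's three best wells. Final well concentrations are not given.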
# Tested on: primary human hepatic stellate cells (donor 1)
# Assay: percent Bodipy-positive cells; higher = more lipid droplet accumulation
# Conditions: 48 h
# [1] = library stock concentration: 10 mM
# [2] = library stock concentration: 80 uM
# [3] = library stock concentration: 400 uM
# [4] = library stock concentration: 2 mM
# [5] = library stock concentration: 3.33 mM
# [6] = library stock concentration: 1 mM
# [7] = library stock concentration: 15.4 mM
structure (smiles),measurement,setting,value
O=C1C(CC[S+]([O-])c2ccccc2)C(=O)N(c2ccccc2)N1c1ccccc1 (stereo not given) [Sulfinpyrazone],percent Bodipy-positive cells,,26.5 ± 7%
same,percent Bodipy-positive cells,library stock concentration: 4.9 mM,11.8 ± 3.5%
same,percent Bodipy-positive cells,[1],16% and 32.6%
CCn1c(=O)c(-c2ccc(-c3cncs3)cc2Cl)cc2cnc(Nc3ccc(N4CCN(C)CC4)cc3)nc21,percent Bodipy-positive cells,[2],5.5 ± 0.5%
same,percent Bodipy-positive cells,[3],9.12 ± 0.63%
same,percent Bodipy-positive cells,[4],5.71 ± 1.8%
same,percent Bodipy-positive cells,[1],11.3 ± 6.6%
COc1ccc(CCN(C)CCc2ccc(OC)c(OC)c2)cc1OC [YS-035 hydrochloride],percent Bodipy-positive cells,[1],34.8% and 17.6%
CC(=O)O[C@]1(C(C)=O)CC[C@H]2[C@@H]3C=C(C)C4=CC(=O)CC[C@@H]4[C@H]3CC[C@@]21C [Nomegestrol acetate],percent Bodipy-positive cells,,11.6 ± 0.69%
CC[N+](CC)(CC)CC [Tetraethylammonium chloride],percent Bodipy-positive cells,[1],10.3 ± 2.5%
NC(=O)c1noc([C@H](CCCC2CCCCC2)CC(=O)NO)n1,percent Bodipy-positive cells,[5],7.92 ± 2.8%
same,percent Bodipy-positive cells,[1],13.4 ± 6.9%
CC1(CN2CCC(n3c(=O)[nH]c4ccccc43)CC2)OCc2ccccc2-n2cccc21 (stereo not given),percent Bodipy-positive cells,[1],11.3 ± 0.34%
COc1ccc2c(c1)c(CC(=O)Oc1ccc(-c3cc(=S)ss3)cc1)c(C)n2C(=O)c1ccc(Cl)cc1,percent Bodipy-positive cells,[6],14.1 ± 6.6%
CC(C)Oc1cccc(-n2c(CCc3c[nH]c4ccc(Br)cc34)nc3ccccc3c2=O)c1,percent Bodipy-positive cells,[1],4.36 ± 3.4%
Cc1cccc(-c2[nH]c(C(C)(C)C)nc2-c2ccc3nccnc3c2)n1,percent Bodipy-positive cells,[2],20.1 ± 1.6%
same,percent Bodipy-positive cells,[3],27.6 ± 26%
same,percent Bodipy-positive cells,[4],17.7 ± 4.6%
same,percent Bodipy-positive cells,[5],8.71 ± 3.6%
Cc1ccccc1/C=C/C1=NCCN1 [Metrazoline oxalate],percent Bodipy-positive cells,[1],61.4 ± 3.9%
O=C(Nc1ccc(-c2cn[nH]c2)cc1)C1COc2ccccc2O1 (stereo not given) [Rho Kinase Inhibitor V],percent Bodipy-positive cells,[5],16.6 ± 5%
C[C@@H]1CC(=O)NN=C1c1ccc(NN=C(C#N)C#N)cc1 [Levosimendan],percent Bodipy-positive cells,[5],8.39 ± 6.1%
same,percent Bodipy-positive cells,[1],13.8 ± 5.7%
C[C@@H]1CC(=O)NN=C1c1ccc(NN=C(C#N)C#N)cc1,percent Bodipy-positive cells,[1],23.8 ± 2.4%
COc1ccc(CNC(=O)Nc2ncc([N+](=O)[O-])s2)cc1,percent Bodipy-positive cells,[1],95.15 ± 0.79%
CCCCC/C=C\C/C=C\C/C=C\CCCCCCC(=O)OCC [Dihomo-.gamma.-Linolenic Acid ethyl ester],percent Bodipy-positive cells,[6],7.31 ± 0.075%
COc1ccc(-c2nc(C(=O)N3CCN(C)CC3)sc2-c2ccc(OC)cc2)cc1,percent Bodipy-positive cells,[6],16.2 ± 6.4%
same,percent Bodipy-positive cells,[1],45.1 ± 1.8%
Cc1c(NC(=O)c2ccc(C(C)(C)C)cc2)cccc1-c1cn(C)c(=O)c(Nc2ccc(C(=O)N3CCOCC3)cc2)n1,percent Bodipy-positive cells,[5],9.18 ± 1.9%
same,percent Bodipy-positive cells,[1],26.5 ± 8.6%
O=C(O)Cc1ccccc1Nc1c(Cl)cccc1Cl [Diclofenac sodium],percent Bodipy-positive cells,,34.7 ± 3%
same,percent Bodipy-positive cells,library stock concentration: 6.3 mM,2.22 ± 0.81%
O=C(O)Cc1ccccc1Nc1c(Cl)cccc1Cl,percent Bodipy-positive cells,[1],7.54 ± 3.3%
O=C(O)Cc1ccccc1Nc1c(Cl)cccc1Cl [Diclofenac Diethylamine],percent Bodipy-positive cells,[5],8.52 ± 1.4%
same,percent Bodipy-positive cells,[1],30.7 ± 27%
O=C(O)Cc1ccccc1Nc1c(Cl)cccc1Cl [Diclofenac (sodium salt)],percent Bodipy-positive cells,[6],11.6 ± 0.67%
O=C(O)Cc1ccccc1Nc1c(Cl)cccc1Cl [Diclofenac Potassium],percent Bodipy-positive cells,[5],6.49 ± 4.2%
same,percent Bodipy-positive cells,[1],12.5 ± 4.9%
O=C(O)Cc1ccccc1Nc1c(Cl)cccc1Cl [Diclofenac Sodium],percent Bodipy-positive cells,[5],19.1 ± 14%
same,percent Bodipy-positive cells,[1],13.5 ± 0.28%
"CCCCCCCCC#CCC#CCC#CCCCC(=O)O [5,8,11-Eicosatriynoic Acid]",percent Bodipy-positive cells,[6],13 ± 0.34%
"CCCCCCCCC#CCC#CCC#CCCCC(=O)O [5,8,11-Eicosatriynoic acid]",percent Bodipy-positive cells,[6],7.87 ± 9.7%
Cc1nn(C)c2nc(NNC(=O)Nc3cc(Cl)nc(Cl)c3)cc(C(C)C)c12,percent Bodipy-positive cells,[6],8.79 ± 1.6%
same,percent Bodipy-positive cells,[1],7.3 ± 2.2%
C[C@@H](c1ncncc1F)[C@](O)(Cn1cncn1)c1ccc(F)cc1F,percent Bodipy-positive cells,library stock concentration: 9.9 mM,18.2 ± 14%
C[C@@H](c1ncncc1F)[C@](O)(Cn1cncn1)c1ccc(F)cc1F [Voriconazole],percent Bodipy-positive cells,[5],9.57 ± 1.1%
same,percent Bodipy-positive cells,[1],15.8% and 39.3%
CN1CCN(CCCN2c3ccccc3Sc3ccc(S(=O)(=O)N(C)C)cc32)CC1 [Thioproperazine dimesylate],percent Bodipy-positive cells,,78.6 ± 4.7%
Cc1cc(/N=N/c2cc(S(=O)(=O)O)c(C)cc2C)c(N)cc1O [Ischemin],percent Bodipy-positive cells,[2],31.6 ± 3%
same,percent Bodipy-positive cells,[3],31.3 ± 13%
same,percent Bodipy-positive cells,[4],39 ± 6.3%
same,percent Bodipy-positive cells,[1],31.9 ± 2%
O=c1[nH]cc(F)c(=O)[nH]1 [5-fluorouracil],percent Bodipy-positive cells,[7],7.31 ± 0.75%
O=c1[nH]cc(F)c(=O)[nH]1,percent Bodipy-positive cells,[1],32.2 ± 3.8%
O=c1[nH]cc(F)c(=O)[nH]1 [Fluorouracil],percent Bodipy-positive cells,[1],7.54 ± 2.9%
same,percent Bodipy-positive cells,[7],2.36 ± 0.49%
O=c1[nH]cc(F)c(=O)[nH]1 [5-Fluorouracil],percent Bodipy-positive cells,[1],37.4 ± 16%
"O=c1[nH]cc(F)c(=O)[nH]1 [Fluorouracil (5-Fluoracil, 5-FU)]",percent Bodipy-positive cells,[5],6.03 ± 0.58%
same,percent Bodipy-positive cells,[1],17.2 ± 4.2%
O=C(O)c1cc(=O)c2cccc(O)c2[nH]1 [Xanthurenic acid],percent Bodipy-positive cells,[1],29 ± 1.7%
CN(C)CCCN1c2ccccc2Sc2ccc(Cl)cc21.Cl [Chlorpromazine HCl],percent Bodipy-positive cells,[1],97.7 ± 1.6%
O=C(O)CC/C=C\C[C@H]1CO[C@@H](c2ccccc2Cl)O[C@H]1c1ccccc1O,percent Bodipy-positive cells,[1],8.54 ± 5.2%
C[C@]12C=CC(=O)C=C1CC[C@@H]1[C@@H]2[C@@H](O)C[C@@]2(C)[C@H]1CC[C@]2(O)C(=O)CO [Prednisolone],percent Bodipy-positive cells,,23.8 ± 3.8%
same,percent Bodipy-positive cells,[5],6.76 ± 3.7%
same,percent Bodipy-positive cells,[1],5.8% and 15.2% and 30.6%

# 3 entries from above, reformatted.
structure (smiles) | measurement | setting | value
CN(C)CCCN1c2ccccc2Sc2ccc(Cl)cc21.Cl [Chlorpromazine HCl] | percent Bodipy-positive cells | [1] | 97.7 ± 1.6%
O=C(O)CC/C=C\C[C@H]1CO[C@@H](c2ccccc2Cl)O[C@H]1c1ccccc1O | percent Bodipy-positive cells | [1] | 8.54 ± 5.2%
C[C@]12C=CC(=O)C=C1CC[C@@H]1[C@@H]2[C@@H](O)C[C@@]2(C)[C@H]1CC[C@]2(O)C(=O)CO [Prednisolone] | percent Bodipy-positive cells |  | 23.8 ± 3.8%
